This assay has as its system BDF1 mice, P388 leukemia ip, median survival T/C. In words: NCI In Vivo Anticancer Drug Screen. Data for tumor model P388 Leukemia (intraperitoneal) in B6D2F1 (BDF1) mice. The following applies: T/C endpoint: median survival time, higher T/C = longer survival. A digest of the protocol:
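Survival ratio, drug arm over vehicle arm, in mice with a transplanted tumour.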

[1] abbreviates: dose: 100.0 mg/kg/injection, schedule: Q04DX003 (ip), vehicle: saline with Tween-80.
Setting [2] is: dose: 200.0 mg/kg/injection, schedule: Q04DX003 (ip), vehicle: saline with Tween-80.
[3] abbreviates: dose: 400.0 mg/kg/injection, schedule: Q04DX003 (ip), vehicle: saline with Tween-80.
Setting [4] is: dose: 400.0 mg/kg/injection, schedule: Q01DX009 (ip), vehicle: saline with Tween-80.
The mark [5] stands for this setting: dose: 50.0 mg/kg/injection, schedule: Q04DX003 (ip), vehicle: Klucel (hydroxypropylcellulose) (HPC).
Setting [6] is: dose: 100.0 mg/kg/injection, schedule: Q01DX009 (ip), vehicle: saline with Tween-80.
The mark [7] stands for this setting: dose: 200.0 mg/kg/injection, schedule: Q01DX009 (ip), vehicle: saline with Tween-80.
Setting [8] is: dose: 100.0 mg/kg/injection, schedule: Q04DX003 (ip), vehicle: Klucel (hydroxypropylcellulose) (HPC).
[9] abbreviates: dose: 400.0 mg/kg/injection, schedule: Q04DX003 (ip), vehicle: Klucel (hydroxypropylcellulose) (HPC).

The list shows only some results of the screen, not a fair sample: it is rich in T/C values a quarter to a half above the control, in often repeated tests (any T/C) and in doses without a T/C. Other doses and runs of a compound stand elsewhere. T/C gives the treated animals as a percentage of the vehicle group. Some entries give survivors of the animals treated and no T/C: the source holds a T/C of zero for them, seemingly a mark for toxic or unscored doses. Some survivor counts are full or nearly so, which does not show that the dose was tolerated: the source hardly ever lists a survival T/C far under the control, and the zero likely stands for such cases as well. Counts of survivors are from the toxicity check (mostly the fifth day) where no day follows; animals may have died later. Schedules are NCI's codes, read here as Q, the interval in days (D) or hours (H), X, the number of doses. Where survival is the endpoint, the PubChem record calls one and a half times the control and up active, and a quarter to a half above the control has no call in these data; cut-offs in other NCI protocols can differ. Some T/C values carry the count of animals alive at the toxicity check (mostly the fifth day); without a count, all were alive then.

This passage reports T/C and survivor count results from PubChem BioAssay AID328 (DTP/NCI, 2004).

Turning to `Cn1nnc(N/N=C/c2ccccc2)n1`, the T/C (dose: 12.5 mg/kg/injection, schedule: Q01DX009 (ip), vehicle: saline with Tween-80) was 140 % of control [5 of 6 alive]. The survivor count reads like this: (dose: 40.0 mg/kg/injection, schedule: Q01DX009 (ip), vehicle: saline with Tween-80) 3 of 6; (dose: 50.0 mg/kg/injection, schedule: Q01DX009 (ip), vehicle: saline with Tween-80) 0 of 6; (dose: 50.0 mg/kg/injection, schedule: Q04DX003 (ip), vehicle: saline with Tween-80) 1 of 6; under setting [1], 6 of 6.
As to `CC1CCCC(NC(=O)N(CCCl)N=O)C1` (centres undefined), the survivor count runs as follows: under setting [2], 5 of 6; under setting [3], 2 of 6.
With `COc1ccc(CNCC(OC)OC)cc1O`, for the setting “dose: 400.0 mg/kg/injection, schedule: Q01DX001 (ip), vehicle: saline with Tween-80”, the survivor count is 2 of 6.
For the molecule `CC(=O)NCCN=Cc1ccccc1`, under setting [4], the T/C is 125 % of control [5 of 6 alive].
For `COc1cc([C@@H]2c3cc4c(cc3[C@@H](OC3OC5COC(C)OC5C(O)C3O)[C@H]3COC(=O)[C@H]23)OCO4)cc(OC)c1O` (some centres undefined), the T/C under setting [5] is 140 % of control [7 of 8 alive]. The survivor count reads like this: (dose: 60.0 mg/kg/injection, schedule: Q04DX003 (ip), vehicle: saline) 9 of 10; (dose: 83.3 mg/kg/injection, schedule: Q04DX003 (ip), vehicle: Klucel (hydroxypropylcellulose) (HPC)) 5 of 8.
For `ClC1(c2ccccc2)c2ccc(Br)cc2-c2cc(Br)ccc21`, the T/C is, setting by setting: (dose: 100.0 mg/kg/injection, schedule: Q01DX009 (ip), vehicle: Klucel (hydroxypropylcellulose) (HPC)) 125 % of control; (dose: 150.0 mg/kg/injection, schedule: Q01DX009 (ip), vehicle: saline with Tween-80) 126 % of control [5 of 6 alive]. Besides, the survivor count (dose: 400.0 mg/kg/injection, schedule: Q01DX009 (ip), vehicle: Klucel (hydroxypropylcellulose) (HPC)) is on record as 5 of 6.
On to `CCOC(=O)c1ccc(OP(=O)(N(C)C)N(C)C)cc1`, for which the survivor count under setting [6] is 0 of 6 and the survivor count under setting [7] is given as 0 of 6.
With `OCC1C2CCC(C2)C1CO` (centres undefined), the survivor count reads like this: (dose: 170.0 mg/kg/injection, schedule: Q01DX009 (ip), vehicle: saline) 0 of 6; (dose: 255.0 mg/kg/injection, schedule: Q01DX001 (ip), vehicle: Klucel (hydroxypropylcellulose) (HPC)) 2 of 6; (dose: 385.0 mg/kg/injection, schedule: Q01DX001 (ip), vehicle: Klucel (hydroxypropylcellulose) (HPC)) 1 of 6.
Take `CCOC(=O)c1cc(OC(C)=O)c2c(ccc3ccccc32)c1C`: the survivor count (dose: 200.0 mg/kg/injection, schedule: Q04DX003 (ip), vehicle: Klucel (hydroxypropylcellulose) (HPC)) is 6 of 6.
For the molecule `COC(=O)CCSC(c1ccccc1)(c1ccccc1)c1ccccc1`, the survivor count (dose: 175.0 mg/kg/injection, schedule: Q01DX009 (ip), vehicle: Klucel (hydroxypropylcellulose) (HPC)) is 6 of 6 and the survivor count (dose: 350.0 mg/kg/injection, schedule: Q01DX009 (ip), vehicle: Klucel (hydroxypropylcellulose) (HPC)) is on record as 6 of 6.
On to `CC(=O)OC1CC(OC2C(O)CC(OC3C(O)CC(OC4CCC5(C)C(CCC6C5CCC5(C)C(C7=CC(=O)OC7)C(O)CC65O)C4)OC3C)OC2C)OC(C)C1OC1OC(CO)C(O)C(O)C1O` (centres undefined), for which the survivor count is 2 of 6 (dose: 50.0 mg/kg/injection, schedule: Q01DX010 (ip), vehicle: carboxymethylcellulose (CMC)); 2 of 6 under setting [5]; 1 of 6 (dose: 100.0 mg/kg/injection, schedule: Q01DX010 (ip), vehicle: carboxymethylcellulose (CMC)); 2 of 6 under setting [8].
On to `c1ccc([P+](CCCCCCCCCC[P+](c2ccccc2)(c2ccccc2)c2ccccc2)(c2ccccc2)c2ccccc2)cc1`, for which the survivor count reads like this: (dose: 10.0 mg/kg/injection, schedule: Q01DX010 (ip), vehicle: saline) 0 of 6; (dose: 20.0 mg/kg/injection, schedule: Q01DX010 (ip), vehicle: saline) 0 of 6.
For `COc1ccc(C(=O)CC(c2ccc3c(c2)OCO3)c2c(O)c3ccccc3oc2=O)cc1OC` (centres undefined), under setting [4], the survivor count was 5 of 6.
Consider `CCOC(=O)C(N)Cc1ccc(N(CCCl)CCCl)cc1` (centres undefined), for which the survivor count reads like this: under setting [1], 1 of 6; under setting [2], 0 of 6; under setting [3], 0 of 6.
Turning to `COc1ccccc1Cc1c(OC)cc(OC)c(C(=O)CCc2ccccc2)c1O`, the T/C by setting is: (dose: 2.0 mg/kg/injection, schedule: Q01DX009 (ip), vehicle: saline) 141 % of control; (dose: 4.0 mg/kg/injection, schedule: Q01DX009 (ip), vehicle: saline) 144 % of control.
`COC(=O)CCC(=O)Nc1ccc(C(=O)CBr)cc1`: the survivor count under setting [8] is recorded as 4 of 6.
Regarding `CC(Cc1ccccc1)CC(C(=O)O)C(=O)O` (centres undefined), the survivor count under setting [3] is recorded as 4 of 6.
Consider `OCCN=Cc1ccccc1`, for which the survivor count under setting [3] is on record as 0 of 6.
For `C[CH2][Pb]([CH2]C)([CH2]C)[O][As](=O)(O)c1ccc(N)cc1`, the survivor count reads like this: (dose: 1.3 mg/kg/injection, schedule: Q01DX009 (ip), vehicle: saline) 6 of 6; (dose: 6.0 mg/kg/injection, schedule: Q01DX009 (ip), vehicle: saline) 4 of 6. In addition, where the note is “dose: 3.0 mg/kg/injection, schedule: Q01DX009 (ip), vehicle: saline”, the T/C is 140 % of control [5 of 6 alive].
As for `ClC(Cl)(Cl)c1cccc(C(Cl)(Cl)Cl)c1`, the T/C under setting [9] was 135 % of control. Also, the survivor count reads like this: under setting [9], 1 of 6; (dose: 600.0 mg/kg/injection, schedule: Q04DX003 (ip), vehicle: Klucel (hydroxypropylcellulose) (HPC)) 1 of 6.
Take `Oc1cccc(O)c1`: the survivor count is given as 5 of 6 (dose: 200.0 mg/kg/injection, schedule: Q01DX010 (ip), vehicle: saline) and 0 of 6 (dose: 400.0 mg/kg/injection, schedule: Q01DX010 (ip), vehicle: saline).
As for `CC1OC(Oc2c(-c3ccc(O)c(O)c3)oc3cc(O)cc(O)c3c2=O)C(O)C(O)C1O` (centres undefined), the T/C under setting [3] was 127 % of control.
Regarding `OC(Cc1ccc2ccccc2n1)C(Cl)(Cl)Cl` (centres undefined), the survivor count by setting is: under setting [6], 6 of 6; under setting [7], 6 of 6.
